# PubChem BioAssay (NCATS)
# Values joined by “and” are separate entries in the source; they are usually repeats but may differ in a detail not shown here. Equal entries are not always repeated. The list shows a part of the results. Further columns of the screen follow, without active or inactive calls. Compounds called inactive in the main read-out are mostly missing here. For some of these results: Potencies come from curve fits of mixed quality, noted in brackets.
# How the values were obtained:
# [1] = qHTS assay for small molecule antagonists of androgen receptor signaling (AID 588516); details: AR-UAS-bla HEK293, beta-lactamase ratio, antagonist mode, 16 h
# In short: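 Antagonist mode: inhibition of R1881-stimulated (10 nM final) bla reporter in GeneBLAzer AR HEK 293 cells, 16 h at 37C, compounds titrated. IC50 and efficacy from Hill-equation fits of 405/460–530 nm FRET ratios.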
# [2] = qHTS assay for small molecule antagonists of glucocorticoid receptor signaling (AID 588533); details: HeLa MMTV-bla, GRE beta-lactamase ratio, antagonist mode, 18 h; measured here: W530 channel AC50
# [3] = qHTS assay for small molecule agonists of retinoid X receptor alpha signaling (AID 588544); details: HEK293T RXRa-UAS-bla, beta-lactamase reporter, 18 h; 530 nm emission
# [4] = qHTS assay for small molecule antagonists of retinoid X receptor alpha signaling (AID 588546); details: HEK293T RXRa-UAS-bla, beta-lactamase ratio, antagonist mode; measured here: W530 green channel, cytotoxicity proxy;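 further: cells stimulated with 9-cis-retinoic acid as agonist; on the % scale 0 is the no-effect control and ±100 the full control effect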
# In short: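 Beta-lactamase reporter inhibition, read as CCF4 fluorescence ratio (ex 405, em 460/530 nm) after 2 h at RT. HEK293T UAS-bla cells, 2500/well, were stimulated with 9-cis-RA at 500 or 100 nM final alongside test compound for 18 h at 37 C.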
# [5] = qHTS assay for small molecule antagonists of peroxisome proliferator-activated receptor delta signaling (AID 588535); details: HEK293T PPARd-UAS-bla, beta-lactamase FRET ratio, 18 h; 460 nm channel;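 further: cells co-treated with a PPAR-delta agonist as stimulator during compound exposure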
# In short: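 Antagonist-mode beta-lactamase reporter (GeneBLAzer PPAR-delta-UAS-bla) in HEK293T cells, 2% charcoal/dextran FBS, 4000 cells/well. Compound titrations, 18 h at 37 C; CCF4 ratio read, IC50 and efficacy from Hill fits.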
# [6] = qHTS assay for small molecule antagonists of peroxisome proliferator-activated receptor gamma signaling (AID 588537); details: HEK293 PPARg-UAS-bla, beta-lactamase ratio, antagonist mode; measured here: W460 blue channel
# In short: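 PPARγ-UAS-bla HEK293 cells (3000/well) in 1% charcoal/dextran-stripped FBS are treated with compound, then stimulated with 50 nM rosiglitazone for 16 h at 37 °C. Read-out is CCF4 β-lactamase fluorescence after 2 h at RT. IC50 comes from Hill fits normalised to rosiglitazone and DMSO.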
# [7] = qHTS assay for small molecule antagonists of vitamin D receptor signaling (AID 588541); details: HEK293T VDR-UAS-bla, beta-lactamase ratio, antagonist mode; measured here: W460 blue channel (cell viability)
# [8] = S16 Schwann cell PMP22 intronic element beta-lactamase assay (AID 624044); details: S16 rat Schwann cells, PMP22 element beta-lactamase FRET, 24 h
# In short: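 Rat S16 Schwann cells with beta-Lac driven by a PMP22 intronic element, compound-treated 24 h at 37 °C. LiveBLAzer FRET B/G read: 460 nm normalized to potassium clavulanate vs DMSO; 535 nm FRET as viability; concentration-effect curves classified.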
# [9] = measured here: W530 green channel, cytotoxicity/artifact
# [10] = measured here: W460 blue channel fit
# [11] = measured here: 530 nm viability channel
smiles,measurement,setting,value
Oc1cc(Cl)c(Cl)c(Cl)c1,AC50,[1]; [9],"50.1 µM [rising, single point]"
same,AC50,[2],"17.8 µM [falling, partial curve, poor fit]"
same,max response,[3],8.93%
same,max response,[4],-11.8%
Cc1cnc[nH]1,AC50,[1]; [10],"50.1 µM [falling, single point]"
same,max response,[5],7.87%
same,AC50,[6],"63.1 µM [rising, single point]"
CCOP(=O)(NC(C)C)Oc1ccc(SC)c(C)c1 (stereo not drawn),AC50,[1]; [9],"50.1 µM [rising, single point]"
same,AC50,[2],"3.16 µM [falling, partial curve, poor fit]"
same,max response,[5],38.6%
same,AC50,[6],"50.1 µM [falling, partial curve, poor fit]"
same,max response,[3],22.6%
Cc1cc(N=Nc2ccccc2C)ccc1N,AC50,[1]; [10],"44.7 µM [falling, partial curve, poor fit]"
same,AC50,[1]; [9],"22.4 µM [rising, single point]"
same,AC50,[2],"44.7 µM [falling, partial curve, poor fit]"
same,max response,[5],-71.5%
same,AC50,[6],"25.1 µM [falling, partial curve, poor fit] and 39.8 nM [falling, full curve, poor fit]"
same,max response,[3],9.96% and 3.38%
same,max response,[4],-12.9%
O=C1C2(Cl)C3(Cl)C4(Cl)C(Cl)(Cl)C5(Cl)C3(Cl)C1(Cl)C5(Cl)C24Cl (stereo not drawn),AC50,[1]; [10],"50.1 µM [falling, partial curve, poor fit] and 39.8 µM [falling, partial curve]"
same,AC50,[1]; [9],"70.8 µM [falling, single point]"
same,AC50,[2],"39.8 µM [falling, partial curve]"
same,AC50,[6],"50.1 µM [falling, partial curve, poor fit] and 25.1 µM [falling, full curve]"
same,AC50,[7],"39.8 µM [falling, partial curve, poor fit] and 22.4 µM [falling, partial curve, poor fit]"
same,max response,[3],-49.8% and 37.5% and -8.37%
same,max response,[4],-33.6% and -2.56% and -6.66%
CCOP(=O)(OCC)Oc1nc(Cl)c(Cl)cc1Cl,AC50,[1]; [9],"31.6 µM [rising, partial curve, poor fit]"
CCOP(=O)(OCC)OC(Cl)C(Cl)(Cl)Cl (stereo not drawn),AC50,[1]; [9],"10 µM [falling, partial curve, poor fit]"
CCC[CH2][Sn]([Cl])([CH2]CCC)[CH2]CCC,AC50,[7],"50.1 µM [falling, single point]"
O=[N+]([O-])c1cc(C(F)(F)F)c(Cl)c([N+](=O)[O-])c1Nc1ncc(C(F)(F)F)cc1Cl,AC50,[7],"28.2 µM [falling, full curve, poor fit]"
CC(C)(C)c1cc(O)ccc1O,AC50,[8]; [11],"1 µM [falling, full curve, poor fit]"
O=C(Nc1ccc(Cl)cc1)Nc1ccc(Cl)c(Cl)c1,AC50,[8]; [11],"8.91 µM [falling, full curve]"
O=C/C=C/c1ccccc1,max response,[5],-31.2%
same,AC50,[6],"0.794 µM [falling, full curve, poor fit]"
Cc1ccc2c(c1N)C(=O)c1ccccc1C2=O,max response,[5],69.3% and 69.4%
same,AC50,[6],"3.98 µM [falling, full curve, poor fit]"
COC(=O)N(OC)c1ccccc1COc1ccn(-c2ccc(Cl)cc2)n1,max response,[5],-83.7%
same,AC50,[6],"44.7 µM [falling, partial curve, poor fit]"
same,AC50,[7],"50.1 µM [falling, partial curve, poor fit]"
COP(=O)(OC)C(O)C(Cl)(Cl)Cl (stereo not drawn),max response,[5],-95.9%
same,AC50,[6],"17.8 µM [falling, partial curve, poor fit]"
same,AC50,[7],"31.6 µM [falling, partial curve, poor fit]"
same,max response,[3],-30.9%
same,max response,[4],-16.6%
[Cl-].[Cl-].[Hg+2],max response,[5],-135%
same,AC50,[6],"44.7 µM [falling, partial curve]"
same,AC50,[7],"5.62 µM [falling, full curve, poor fit]"
same,max response,[3],-54.5%
same,max response,[4],-39.8%
same,AC50,[8]; measured here: 460 nm blue channel,"8.91 µM [falling, partial curve]"
same,AC50,[8]; [11],"5.01 µM [rising, full curve]"
CCNc1nc(Cl)nc(NC(C)C)n1,max response,[5],-3.44% and 57.8%
same,AC50,[6],"35.5 µM [rising, single point]"
BrC(Br)Br,max response,[5],-49.4%
same,AC50,[6],"7.08 µM [falling, partial curve, poor fit]"
CCOC(=O)c1ccccc1C(=O)OCC,max response,[5],-21.4%
same,AC50,[6],"8.91 µM [rising, partial curve]"
same,max response,[3],-23.8%

# An excerpt of these results, bar-delimited:
smiles | measurement | setting | value
[Cl-].[Cl-].[Hg+2] | AC50 | [8]; measured here: 460 nm blue channel | 8.91 µM [falling, partial curve]
same | AC50 | [8]; [11] | 5.01 µM [rising, full curve]
